The list shows a part of the results.

This experiment deals with T1, OsSMF1 (Oryza sativa, UniProt Q6ZLB0 1-436).
T1 sequence: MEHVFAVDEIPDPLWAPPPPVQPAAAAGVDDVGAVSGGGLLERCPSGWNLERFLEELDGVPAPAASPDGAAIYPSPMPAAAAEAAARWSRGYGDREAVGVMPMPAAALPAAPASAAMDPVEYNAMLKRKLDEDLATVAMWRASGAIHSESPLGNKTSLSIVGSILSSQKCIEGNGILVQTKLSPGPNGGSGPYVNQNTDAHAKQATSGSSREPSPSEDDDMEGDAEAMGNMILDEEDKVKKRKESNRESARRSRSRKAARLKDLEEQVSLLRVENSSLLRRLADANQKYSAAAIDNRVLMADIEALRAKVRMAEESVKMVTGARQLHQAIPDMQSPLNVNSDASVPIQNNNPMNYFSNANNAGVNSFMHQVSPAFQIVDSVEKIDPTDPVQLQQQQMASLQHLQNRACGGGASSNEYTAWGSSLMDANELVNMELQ
In words: protein-binding microarray (RPBM); PBS, 2% BSA, 51.3 ng/ul salmon testes DNA, 50 uM zinc acetate, 200 nM TF, 25 C, 1 h; high values mean tight binding. The note with it: protein: recombinant; tags: N-terminal polyhistidine and DsRed monomer fusion (pET32a); chain copies: 2; label: CyDye5-dUTP incorporated in the synthesized complementary strand; 3' TTTTT single-stranded linker to array surface; dsDNA, one strand shown. A digest of the protocol: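 Transcription factors were made in E. coli BL21-CodonPlus as N-terminal fusions to a polyhistidine tag and DsRed, then purified on Ni–NTA. After primer extension with Cy5-dUTP and blocking with 2% BSA, a custom Agilent array was exposed for 1 h at 25 °C to 200 nM protein in PBS, 2% BSA, salmon testes DNA and 50 µM zinc acetate. Washed arrays were scanned on an Axon 4000B, and the binding signal is per-feature fluorescence intensity in arbitrary units.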
Take “TTCCAGAATCAGAATAGTGAAGCAACTGACGTGTCAAGTACGGAGTCACCTAGTGCAG”: the binding signal was 20800 fluorescence intensity (a.u.).
For the sequence “GACAATTATAAAGGGCACATCAGGAAATTTACCTACCGCACGGAGTCACCTAGTGCAG”, the binding signal was 20000 fluorescence intensity (a.u.).
The figure for “GACCGCCACCTCCGCCTCCGCGTGATCACAGTCACGTGGGCGGAGTCACCTAGTGCAG” is 4480 fluorescence intensity (a.u.); for “GCTACTAAGGAGTACTACAATATTGCATCATCGTCATCATCGGAGTCACCTAGTGCAG” it is 6340 fluorescence intensity (a.u.).
The figure for “TGAATTTCCGGGCGTGACATTACGCCACCATCCCGAACAGCGGAGTCACCTAGTGCAG” is 3700 fluorescence intensity (a.u.); for “TGGGTGATGCCACATTGCCATTGCCACGACGACTTCTTCCCGGAGTCACCTAGTGCAG” it is 5760 fluorescence intensity (a.u.); for “ATACTATAAATTTGGATATGCTCTATAGTACTACAAATCTCGGAGTCACCTAGTGCAG” it is 29100 fluorescence intensity (a.u.).
As for “GTAGGATATGATGCACAATTCGCTTCCCAGTCACCTTCCACGGAGTCACCTAGTGCAG”, the binding signal is 3570 fluorescence intensity (a.u.).
The figure for “CTTCTAGTGAGTTGATTGAAGGGATCTAATCCTGGGTCCGCGGAGTCACCTAGTGCAG” is 3180 fluorescence intensity (a.u.).
Next, “ATCTTGATATTGACGAAGTCATCACATGCGCATCGTTGCCCGGAGTCACCTAGTGCAG”: 3150 fluorescence intensity (a.u.).
As to “CAAGTTGTGACATTGAAAATGAGGGGTATGACTAGACACACGGAGTCACCTAGTGCAG”, the binding signal is 6580 fluorescence intensity (a.u.).
Consider “TGCATCTCAACGATCGACCATCATAACGAGTTCCACGTAGCGGAGTCACCTAGTGCAG”, for which the binding signal is 3560 fluorescence intensity (a.u.).
The figure for “AAGCCCTCGCGTTTCATCATGTGTGTGGTGAGTCATGGAGCGGAGTCACCTAGTGCAG” is 13700 fluorescence intensity (a.u.); for “CCTCGCTGGGGTGCACCGCCGCTGCATCGGCTCCACTCGGCGGAGTCACCTAGTGCAG” it is 3870 fluorescence intensity (a.u.).
The figure for “TTGCACCAGTGCCACTGCCACCTAGCTCACCCTGTCATTTCGGAGTCACCTAGTGCAG” is 3390 fluorescence intensity (a.u.); for “TGCACGGAATAATCCAGAACGTGTCAGGCCAAAGGGCCCCCGGAGTCACCTAGTGCAG” it is 3160 fluorescence intensity (a.u.); for “ATCGATCCAAGCCAAGGTGACTCACCACTCCACTCCACTCCGGAGTCACCTAGTGCAG” it is 12600 fluorescence intensity (a.u.).
The figure for “TAGTGCAGATGCAACGGAAGAAGCTCCACCTCAATGGAAGCGGAGTCACCTAGTGCAG” is 6560 fluorescence intensity (a.u.).
Turning to “CCCAAACGGAACCGACCTGCCATGCCCATGCTGGCTGCGTCGGAGTCACCTAGTGCAG”, the binding signal is 3380 fluorescence intensity (a.u.).
On to “GCCACACCTCCCATTCCTTAGCCAAACACTCGCACTACTCCGGAGTCACCTAGTGCAG”, for which the binding signal is 3200 fluorescence intensity (a.u.).
On to “AGAAGTATTTCTGCGTCATTGTTGGAAATTATATTTCTAGCGGAGTCACCTAGTGCAG”, for which the binding signal was 3650 fluorescence intensity (a.u.).
Turning to “ATTTTACTCTTAGCAATCAATTTAGCATATTTATCTATTCCGGAGTCACCTAGTGCAG”, the binding signal was 3360 fluorescence intensity (a.u.).
Next, “TCAATAGAAAATAAACTGATTCATGTTAAAACCTTCACACCGGAGTCACCTAGTGCAG”: 46600 fluorescence intensity (a.u.); “TAGTATATAAAGCCTCGCACGGGACCAATCTCCACTTCCGCGGAGTCACCTAGTGCAG”: 3200 fluorescence intensity (a.u.).
In the case of “CCAGAACGCGCCACGTAGCGCATCGAAGAGATCCAGCATCCGGAGTCACCTAGTGCAG”, the binding signal is 4780 fluorescence intensity (a.u.).
In the case of “AAGGCGAGGCGCCCTGACGCCTTTTCCCGCGATCTGATCTCGGAGTCACCTAGTGCAG”, the binding signal was 4930 fluorescence intensity (a.u.).
On to “ATTCACTGATAATAGAGACCCACACGTTAGTATTGGAGTACGGAGTCACCTAGTGCAG”, for which the binding signal is 3140 fluorescence intensity (a.u.).
As for “TCAAGATCCAACAGCTTGTCTCGTGCTCGTCACAGCTTCTCGGAGTCACCTAGTGCAG”, the binding signal is 3230 fluorescence intensity (a.u.).
In the case of “CAGGGCCATGTTCGCTGATACATTGTGTTGGATTGCACTGCGGAGTCACCTAGTGCAG”, the binding signal is 3470 fluorescence intensity (a.u.).
The figure for “CCGCGACGCCCCAGCAACACATCGCTACCATGCCATCGCCCGGAGTCACCTAGTGCAG” is 3270 fluorescence intensity (a.u.); for “GCCACACCCACACTGACACACATATACAAGCCAGAGAGATCGGAGTCACCTAGTGCAG” it is 3280 fluorescence intensity (a.u.).
On to “CCCGTCCAGCATTTTGTGTCTTGTCATCCTCGCCACCTCACGGAGTCACCTAGTGCAG”, for which the binding signal is 7020 fluorescence intensity (a.u.).
Next, “TTGTACTGTAACAGCTTGGTTTGATGTGCATGGCTTACTGCGGAGTCACCTAGTGCAG”: 3300 fluorescence intensity (a.u.).
With “AAGATGGGCTTTGGGCCTTCGATAACCTATGCCATGTCAGCGGAGTCACCTAGTGCAG”, the binding signal was 8510 fluorescence intensity (a.u.).
The figure for “GCCATGAACGTCTCATTGTGAATGTGTCATCGAGGAGAAGCGGAGTCACCTAGTGCAG” is 5310 fluorescence intensity (a.u.).
As for “CAAGAAATTTCCACGGGGAAAACGACGCCTAATCACCGTGCGGAGTCACCTAGTGCAG”, the binding signal was 3240 fluorescence intensity (a.u.).
The figure for “GGCGGCCAGAAGAGCGCGCCGCCGCGGAGCACGACGGGGACGGAGTCACCTAGTGCAG” is 3270 fluorescence intensity (a.u.); for “TACACCATGTCCTAAAATTCCCGTCTGACTTTGGTTGGGACGGAGTCACCTAGTGCAG” it is 20700 fluorescence intensity (a.u.); for “CGGCGCTCGTCGCCTCGCCGCGGCGTCGTCACTGTTCCGGCGGAGTCACCTAGTGCAG” it is 4040 fluorescence intensity (a.u.).
As to “AAAGGAAAGGACGAAACCACCTCACCTCATCTCATGGCGTCGGAGTCACCTAGTGCAG”, the binding signal was 3230 fluorescence intensity (a.u.).
Next, “ACGAATTTATTAAGCCTAATTAATCCGTTATTAGCAAATGCGGAGTCACCTAGTGCAG”: 6210 fluorescence intensity (a.u.); “CCAACGAATCCAACCAAATTCGCTGTTCTTGCCTTCTTCTCGGAGTCACCTAGTGCAG”: 3340 fluorescence intensity (a.u.).
